Results published in the supplement of paper PMC12819154, “High-throughput peptide-centric local stability assay extends protein–ligand identification to membrane proteins, tissues and bacteria” (Nature Structural & Molecular Biology, 2025).
Some of the results follow. Small differences around the control level are noise.

The chains behind the UniProt entries cited, without tags or fusion partners. Where a name states a change or a piece, a line headed by the entry shows the natural chain unless it says otherwise.
UniProt P32921: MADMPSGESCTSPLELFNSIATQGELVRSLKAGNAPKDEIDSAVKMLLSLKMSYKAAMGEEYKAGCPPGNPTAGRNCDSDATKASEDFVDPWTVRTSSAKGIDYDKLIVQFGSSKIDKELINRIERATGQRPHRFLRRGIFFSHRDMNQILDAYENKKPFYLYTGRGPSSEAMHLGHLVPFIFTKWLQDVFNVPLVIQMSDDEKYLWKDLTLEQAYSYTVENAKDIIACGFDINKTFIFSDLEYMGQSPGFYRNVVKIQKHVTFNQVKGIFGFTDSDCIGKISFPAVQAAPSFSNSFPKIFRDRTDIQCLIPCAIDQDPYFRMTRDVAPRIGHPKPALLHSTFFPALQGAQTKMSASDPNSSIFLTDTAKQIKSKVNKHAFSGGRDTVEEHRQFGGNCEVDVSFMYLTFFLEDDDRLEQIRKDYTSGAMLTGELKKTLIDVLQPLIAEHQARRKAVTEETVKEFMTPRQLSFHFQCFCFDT
UniProt P30282: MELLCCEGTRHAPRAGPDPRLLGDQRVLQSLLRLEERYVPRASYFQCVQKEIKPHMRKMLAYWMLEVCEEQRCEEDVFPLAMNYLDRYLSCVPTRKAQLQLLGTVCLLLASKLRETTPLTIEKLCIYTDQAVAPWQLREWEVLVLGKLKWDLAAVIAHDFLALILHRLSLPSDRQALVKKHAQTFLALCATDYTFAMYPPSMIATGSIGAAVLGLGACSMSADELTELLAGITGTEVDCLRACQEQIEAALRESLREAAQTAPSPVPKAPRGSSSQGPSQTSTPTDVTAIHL
UniProt P34960: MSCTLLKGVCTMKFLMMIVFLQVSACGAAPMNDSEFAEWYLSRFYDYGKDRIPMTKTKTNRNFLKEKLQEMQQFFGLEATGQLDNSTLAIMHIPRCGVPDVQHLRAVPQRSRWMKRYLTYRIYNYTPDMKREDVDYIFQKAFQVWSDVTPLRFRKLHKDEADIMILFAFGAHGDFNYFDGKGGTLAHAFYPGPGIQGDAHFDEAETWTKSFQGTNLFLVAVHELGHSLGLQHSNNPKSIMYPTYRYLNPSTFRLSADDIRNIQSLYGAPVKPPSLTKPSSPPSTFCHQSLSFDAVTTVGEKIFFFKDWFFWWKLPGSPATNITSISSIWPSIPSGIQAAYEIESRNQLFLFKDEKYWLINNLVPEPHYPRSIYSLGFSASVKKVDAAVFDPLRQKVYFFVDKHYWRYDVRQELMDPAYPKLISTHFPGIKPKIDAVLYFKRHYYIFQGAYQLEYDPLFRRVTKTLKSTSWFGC
UniProt P27870: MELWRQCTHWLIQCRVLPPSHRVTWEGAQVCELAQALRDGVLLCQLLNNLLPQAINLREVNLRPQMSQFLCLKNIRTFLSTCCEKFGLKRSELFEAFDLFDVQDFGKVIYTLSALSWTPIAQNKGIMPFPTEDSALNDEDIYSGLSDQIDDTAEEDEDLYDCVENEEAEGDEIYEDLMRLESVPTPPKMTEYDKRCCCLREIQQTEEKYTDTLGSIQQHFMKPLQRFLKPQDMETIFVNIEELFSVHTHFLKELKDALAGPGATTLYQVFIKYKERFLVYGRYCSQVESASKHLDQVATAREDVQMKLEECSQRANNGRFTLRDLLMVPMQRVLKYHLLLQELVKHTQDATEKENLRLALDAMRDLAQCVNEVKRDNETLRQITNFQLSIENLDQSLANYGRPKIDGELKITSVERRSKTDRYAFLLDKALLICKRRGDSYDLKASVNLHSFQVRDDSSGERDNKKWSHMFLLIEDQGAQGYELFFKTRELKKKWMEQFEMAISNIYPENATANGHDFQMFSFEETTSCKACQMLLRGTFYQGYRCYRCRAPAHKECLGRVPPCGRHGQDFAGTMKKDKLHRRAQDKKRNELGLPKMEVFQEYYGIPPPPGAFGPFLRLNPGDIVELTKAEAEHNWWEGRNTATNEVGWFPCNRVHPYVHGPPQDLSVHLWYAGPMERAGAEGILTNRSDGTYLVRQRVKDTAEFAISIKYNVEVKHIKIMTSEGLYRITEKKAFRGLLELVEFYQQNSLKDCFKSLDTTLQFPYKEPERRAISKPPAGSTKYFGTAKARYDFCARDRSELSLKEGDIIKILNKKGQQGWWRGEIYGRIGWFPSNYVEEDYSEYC
UniProt P29595, whole entry: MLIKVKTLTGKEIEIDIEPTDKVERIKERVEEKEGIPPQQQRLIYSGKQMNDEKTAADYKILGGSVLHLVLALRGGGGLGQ
UniProt P20357: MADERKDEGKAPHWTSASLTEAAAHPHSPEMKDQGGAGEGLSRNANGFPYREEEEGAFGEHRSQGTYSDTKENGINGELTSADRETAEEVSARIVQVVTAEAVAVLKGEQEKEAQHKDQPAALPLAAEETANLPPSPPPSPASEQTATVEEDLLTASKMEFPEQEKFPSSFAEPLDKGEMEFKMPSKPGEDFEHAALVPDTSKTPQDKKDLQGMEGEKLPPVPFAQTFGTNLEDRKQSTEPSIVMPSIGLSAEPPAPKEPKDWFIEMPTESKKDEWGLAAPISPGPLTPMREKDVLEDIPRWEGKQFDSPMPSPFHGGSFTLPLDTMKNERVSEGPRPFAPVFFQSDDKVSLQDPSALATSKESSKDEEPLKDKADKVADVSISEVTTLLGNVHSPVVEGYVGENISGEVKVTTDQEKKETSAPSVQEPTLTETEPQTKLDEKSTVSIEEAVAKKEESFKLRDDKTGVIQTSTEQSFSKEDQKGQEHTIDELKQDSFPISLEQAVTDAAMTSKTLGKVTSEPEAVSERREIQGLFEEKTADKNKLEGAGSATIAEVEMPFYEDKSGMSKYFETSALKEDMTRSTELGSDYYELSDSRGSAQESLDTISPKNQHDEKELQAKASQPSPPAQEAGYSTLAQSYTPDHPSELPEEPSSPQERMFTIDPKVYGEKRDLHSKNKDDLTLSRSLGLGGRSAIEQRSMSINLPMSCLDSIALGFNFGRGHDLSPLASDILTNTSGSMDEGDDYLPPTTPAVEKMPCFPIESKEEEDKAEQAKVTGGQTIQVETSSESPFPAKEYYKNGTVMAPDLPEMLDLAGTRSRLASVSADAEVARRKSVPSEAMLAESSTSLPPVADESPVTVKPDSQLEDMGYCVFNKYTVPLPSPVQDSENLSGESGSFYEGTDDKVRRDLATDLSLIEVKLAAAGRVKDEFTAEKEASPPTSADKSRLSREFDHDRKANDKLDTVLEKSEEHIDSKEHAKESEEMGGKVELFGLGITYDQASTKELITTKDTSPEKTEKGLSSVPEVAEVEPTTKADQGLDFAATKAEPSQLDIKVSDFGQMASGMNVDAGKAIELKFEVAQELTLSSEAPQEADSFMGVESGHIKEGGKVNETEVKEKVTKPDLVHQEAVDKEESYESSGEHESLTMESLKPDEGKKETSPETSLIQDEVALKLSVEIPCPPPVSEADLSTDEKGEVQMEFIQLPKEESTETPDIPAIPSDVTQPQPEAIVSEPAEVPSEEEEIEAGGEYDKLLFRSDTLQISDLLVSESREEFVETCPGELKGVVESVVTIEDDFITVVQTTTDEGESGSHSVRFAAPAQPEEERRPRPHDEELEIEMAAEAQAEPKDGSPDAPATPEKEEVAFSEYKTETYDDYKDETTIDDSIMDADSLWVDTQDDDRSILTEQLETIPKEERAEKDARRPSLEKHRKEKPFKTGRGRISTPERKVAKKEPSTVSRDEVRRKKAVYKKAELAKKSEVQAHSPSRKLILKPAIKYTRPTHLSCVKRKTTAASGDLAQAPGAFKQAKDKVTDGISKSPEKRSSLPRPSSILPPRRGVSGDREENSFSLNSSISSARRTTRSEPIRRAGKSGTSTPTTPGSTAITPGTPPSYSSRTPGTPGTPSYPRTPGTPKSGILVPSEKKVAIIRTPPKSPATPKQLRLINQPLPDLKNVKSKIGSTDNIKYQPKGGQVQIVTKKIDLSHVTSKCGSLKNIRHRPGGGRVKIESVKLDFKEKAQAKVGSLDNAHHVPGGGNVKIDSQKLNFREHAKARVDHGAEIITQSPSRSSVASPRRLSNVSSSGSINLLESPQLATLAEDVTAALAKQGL
UniProt P28650: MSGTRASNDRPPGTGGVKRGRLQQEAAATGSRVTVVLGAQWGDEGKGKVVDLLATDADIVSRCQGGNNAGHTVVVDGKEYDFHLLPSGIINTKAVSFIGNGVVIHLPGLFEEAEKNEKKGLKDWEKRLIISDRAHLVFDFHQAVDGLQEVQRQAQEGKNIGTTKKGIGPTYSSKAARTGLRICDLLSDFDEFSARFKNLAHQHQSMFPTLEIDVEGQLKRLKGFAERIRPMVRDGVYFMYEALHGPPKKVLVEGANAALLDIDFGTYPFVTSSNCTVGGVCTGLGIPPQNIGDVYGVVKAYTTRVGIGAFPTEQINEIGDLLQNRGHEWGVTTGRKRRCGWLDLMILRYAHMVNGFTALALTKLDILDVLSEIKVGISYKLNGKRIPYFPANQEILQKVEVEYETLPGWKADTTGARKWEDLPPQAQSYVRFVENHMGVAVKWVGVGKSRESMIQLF
UniProt P23798: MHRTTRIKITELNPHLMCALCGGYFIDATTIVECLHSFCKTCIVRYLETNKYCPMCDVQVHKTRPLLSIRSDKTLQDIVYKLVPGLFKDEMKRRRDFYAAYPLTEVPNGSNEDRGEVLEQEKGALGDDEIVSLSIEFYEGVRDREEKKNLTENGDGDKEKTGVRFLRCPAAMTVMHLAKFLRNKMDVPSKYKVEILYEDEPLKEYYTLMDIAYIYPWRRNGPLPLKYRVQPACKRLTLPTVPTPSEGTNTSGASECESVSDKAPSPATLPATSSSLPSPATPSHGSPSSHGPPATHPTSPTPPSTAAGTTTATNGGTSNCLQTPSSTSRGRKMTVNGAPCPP
UniProt P22518: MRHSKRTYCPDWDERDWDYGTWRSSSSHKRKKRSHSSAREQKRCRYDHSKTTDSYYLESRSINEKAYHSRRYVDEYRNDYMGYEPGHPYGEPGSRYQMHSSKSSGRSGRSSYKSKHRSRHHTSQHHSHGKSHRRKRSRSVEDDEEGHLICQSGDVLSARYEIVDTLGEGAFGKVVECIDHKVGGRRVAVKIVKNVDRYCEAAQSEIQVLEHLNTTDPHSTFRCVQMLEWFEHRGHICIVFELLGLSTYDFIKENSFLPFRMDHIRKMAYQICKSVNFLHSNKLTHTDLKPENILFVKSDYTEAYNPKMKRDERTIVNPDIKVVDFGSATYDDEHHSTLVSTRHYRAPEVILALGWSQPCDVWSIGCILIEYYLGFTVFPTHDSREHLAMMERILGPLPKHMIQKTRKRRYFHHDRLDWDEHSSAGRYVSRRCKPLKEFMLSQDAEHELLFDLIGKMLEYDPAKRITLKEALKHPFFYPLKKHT
UniProt P32020: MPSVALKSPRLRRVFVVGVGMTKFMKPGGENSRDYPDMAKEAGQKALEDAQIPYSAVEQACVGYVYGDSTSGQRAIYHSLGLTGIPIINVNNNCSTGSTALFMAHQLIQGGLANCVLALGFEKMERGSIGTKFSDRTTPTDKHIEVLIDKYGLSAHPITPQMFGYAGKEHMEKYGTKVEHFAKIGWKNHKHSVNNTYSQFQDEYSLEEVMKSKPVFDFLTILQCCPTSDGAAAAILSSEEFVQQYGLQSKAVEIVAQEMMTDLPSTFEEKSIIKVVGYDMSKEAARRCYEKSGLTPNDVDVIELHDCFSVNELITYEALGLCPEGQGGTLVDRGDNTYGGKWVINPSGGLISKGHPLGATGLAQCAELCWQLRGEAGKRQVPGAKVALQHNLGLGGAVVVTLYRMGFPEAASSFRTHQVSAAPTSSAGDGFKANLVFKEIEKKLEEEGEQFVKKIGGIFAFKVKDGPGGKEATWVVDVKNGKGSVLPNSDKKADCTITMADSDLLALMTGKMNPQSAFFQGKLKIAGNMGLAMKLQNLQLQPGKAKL
UniProt P32261, whole entry: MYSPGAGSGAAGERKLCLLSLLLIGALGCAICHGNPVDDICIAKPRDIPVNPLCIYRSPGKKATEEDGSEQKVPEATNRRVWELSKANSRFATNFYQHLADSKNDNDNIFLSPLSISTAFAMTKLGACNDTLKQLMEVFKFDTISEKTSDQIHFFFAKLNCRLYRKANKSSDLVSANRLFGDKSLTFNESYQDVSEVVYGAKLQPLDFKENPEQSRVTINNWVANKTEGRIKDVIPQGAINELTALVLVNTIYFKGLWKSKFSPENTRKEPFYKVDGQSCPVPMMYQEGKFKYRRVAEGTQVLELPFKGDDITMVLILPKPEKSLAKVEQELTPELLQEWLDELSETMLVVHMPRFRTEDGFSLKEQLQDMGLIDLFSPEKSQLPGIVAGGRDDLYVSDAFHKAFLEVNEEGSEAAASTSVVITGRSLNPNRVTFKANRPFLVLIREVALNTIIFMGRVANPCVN

compound: CN[C@@H]1C[C@H]2O[C@@](C)([C@@H]1OC)n1c3ccccc3c3c4c(c5c6ccccc6n2c5c31)C(=O)NC4 [staurosporine]; assay: log2 fold change of tryptic peptide abundance, ligand vs vehicle (limited proteolysis) (log2 ratio); higher = more trypsin-susceptible (destabilized); details: ligand concentration: 20 uM; sample: mouse liver crude lysate; replicate design: treated separately

Target	log2 fold change
UniProt P32921 (peptide sequence: KDYTSGAMLTGELKK, peptide start residue: 422)	0.173
UniProt P30282 (peptide sequence: MELLCCEGTRHAPR, peptide start residue: 1)	-0.338
UniProt P34960 (peptide sequence: TNRNFLKEK, peptide start residue: 59)	0.977
UniProt P27870 (peptide sequence: YTDTLGSIQQHFMKPLQR, peptide start residue: 209)	0.326
UniProt P29595 (peptide sequence: QMNDEKTAADYK, peptide start residue: 49)	0.176
UniProt P20357 (peptide sequence: SGILVPSEK, peptide start residue: 1635)	-0.192
UniProt P28650 (peptide sequence: ASNDRPPGTGGVK, peptide start residue: 6)	0.245
UniProt P23798 (peptide sequence: RNGPLPLK, peptide start residue: 215)	0.242
UniProt P22518 (peptide sequence: YFHHDRLDWDEHSSAGR, peptide start residue: 410)	0.695
UniProt P32020 (peptide sequence: KLEEEGEQFVK, peptide start residue: 443)	0.145
UniProt P32261 (peptide sequence: DIPVNPLCIYRSPGKK, peptide start residue: 47)	0.169

Given in CSV form: entries from further up.
Target,log2 fold change
"UniProt P34960 (peptide sequence: TNRNFLKEK, peptide start residue: 59)",0.977
"UniProt P20357 (peptide sequence: SGILVPSEK, peptide start residue: 1635)",-0.192
"UniProt P32261 (peptide sequence: DIPVNPLCIYRSPGKK, peptide start residue: 47)",0.169
